# Experimental data taken from PubChem BioAssay AID445 (National Center for Advancing Translational Sciences (NCATS), 2006).
# Some of the results follow. Shown are side measurements of this screen, not its main read-out; they come without a call. Compounds called inactive in the main read-out are mostly missing here. Words in brackets tell the shape of the fitted curve; partial curves, single points and poor fits give uncertain potencies.
# Assay: IkB Signaling
# Conditions: ABC-DLBCL IkBa-CBG/CBR dual luciferase ratio (green luciferase fused to IkBa over red control in OCI-Ly3 lymphoma cells), 4 h; measured here: control luc red channel unless noted
# In short: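 In this assay, an IκBα–CBG68 fusion accumulates when IKK-driven degradation is blocked; native CBR normalizes for cell number. OCI-Ly3 cells were treated 4 h with compound and doxycycline, then green and red light read after Chroma-Glo addition.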
row,SMILES,AC50
1,Cc1nc2sccn2c(=O)c1S(=O)(=O)Nc1cccc(Cl)c1C,"39.8 µM [falling, single point]"
2,Cc1ccc(OCC(=O)Nc2ccc(C(=O)OCc3cc(=O)n4ccsc4n3)cc2)cc1C,"12.6 µM [falling, partial curve]"
3,Cc1ccc(C)n1-c1ccc(-n2cnnn2)cc1,"25.1 µM [rising, single point] [measured here: IkB-luc green channel]"
4,O=C(NCc1ccco1)c1cc(-c2cccnc2)nc2ccc(Cl)cc12,"12.6 µM [falling, partial curve]"
5,COc1cc([N+](=O)[O-])ccc1NC(=O)N1CCC2(CC1)Nc1cc(F)ccc1-n1cccc12,"20 µM [falling, partial curve, poor fit]"
6,O=c1cc(-c2ccccc2)[nH]c2nc(Cl)ccc12,"3.16 µM [rising, full curve] [measured here: IkB-luc green channel]"
7,Cc1ccc(C2C(=O)N(C3CCCCCC3)CC(=O)N2CCC2=CCCCC2)cc1 (configuration not stated),"12.6 µM [falling, partial curve]"
8,Cc1ccccc1Nc1nnc(-c2ccc(C)c(S(=O)(=O)NCC3CCCO3)c2)c2ccccc12 (configuration not stated),"31.6 µM [falling, single point]"
9,CC(C)(C)OC(=O)N1CCC(c2c(C(=O)N3CCN(c4ncccn4)CC3)cnn2-c2ccc(F)cc2)CC1,"25.1 µM [falling, partial curve]"
10,c1cc2c3c(cccc3c1)NC1(CCCCCC1)N2,"794 nM [rising, full curve] [measured here: IkB-luc green channel]"
11,Fc1cccc2sc(Nc3nnc(-c4ccccc4)o3)nc12,"5.01 µM [falling, full curve]"
12,COc1ccc(Oc2ncnc3c2oc2ccccc23)cc1,"3.98 µM [rising, full curve, poor fit]"
13,CCOC(=O)c1ccc(NC(=O)C2CCCN(c3cnccn3)C2)cc1 (configuration not stated),"39.8 µM [falling, single point]"
14,CCOC(=O)C1=C(CNCc2ccc(Cl)cc2)NC(=O)NC1c1ccccc1 (configuration not stated),"20 µM [falling, partial curve]"
15,CC(=O)N1c2ccccc2CC1C(=O)N1CCN(c2ccccc2F)CC1 (configuration not stated),"25.1 µM [falling, partial curve]"
16,COc1cc(NC(=O)Cn2cc(S(=O)(=O)N3CCC(C)CC3)c3ccccc3c2=O)cc(OC)c1OC,"31.6 µM [falling, partial curve]"
17,COc1cccc(/C=C(\C#N)c2nc3ccccc3c(=O)[nH]2)c1OC,"0.631 µM [rising, partial curve]"
18,CCOc1ccc(Nc2ncnc3onc(-c4ccc(Cl)cc4)c23)cc1,"20 µM [falling, single point]"
19,COC(=O)c1ccc(OCC2c3cc(OC)c(OC)cc3CCN2C(=O)Cc2ccc(OC)c(OC)c2)cc1 (configuration not stated),"2 µM [rising, partial curve]"
20,Cc1cn2c(=O)c(S(=O)(=O)NCCc3ccc(Cl)cc3)c(C)nc2s1,"25.1 µM [falling, single point]"
21,COc1cc(C(=O)Nc2nnc(CC(C)(C)C)s2)cc(OC)c1OC,"10 µM [falling, partial curve, poor fit]"

row,SMILES,AC50
1,CCc1ccc2occ(CC(=O)NCc3ccccc3)c2c1,"20 µM [falling, single point]"
2,O=C(Nc1scc(-c2ccc(F)cc2)c1C(=O)O)c1ccco1,"25.1 µM [falling, single point]"
3,COc1ccc(-c2nc3sc(CCNC(=O)c4ccc(C(C)(C)C)cc4)c(C)n3n2)cc1,"12.6 µM [falling, partial curve]"
4,CCOc1ccc(C(=O)Nc2ccc(Cl)c(-c3nc4cc(C)cc(C)c4o3)c2)cc1,"15.8 µM [falling, partial curve]"
5,CCOC(=O)C1CCC(CN(Cc2ccc(OC)cc2)S(=O)(=O)c2ccc(F)c(C(=O)Nc3cc(Cl)ccc3OC)c2)CC1 (configuration not stated),"0.00631 µM [falling, full curve, poor fit]"
6,O=C(Cc1cccs1)N1CCN(c2nc(-c3ccc(Cl)cc3)cs2)CC1,"39.8 µM [falling, single point]"
7,COc1ccc(NC(=O)Cc2ccc(NC(=O)N3CCCCc4ccccc43)cc2)c(OC)c1,"31.6 µM [falling, single point]"
8,CC(C)c1ccc(NC(=O)c2cc(S(=O)(=O)NCCC3=CCCCC3)ccc2F)cc1,"15.8 µM [falling, partial curve]"
9,Cc1cn2c(=O)cc(COC(=O)c3ccc(NC(=O)c4ccc(C(C)(C)C)cc4)cc3)nc2s1,"0.0631 µM [rising, full curve, poor fit]"
10,CCOC(=O)c1ccc(NC(=O)C(CC)Sc2nncn3c2cc2oc(C)cc23)cc1 (configuration not stated),"12.6 µM [falling, partial curve]"
11,CC1(C)Cc2c(sc3nc(-c4cc5ccccc5o4)n(N)c(=O)c23)CO1,"20 µM [falling, partial curve]"
12,COC(=O)c1c(-c2cccnc2)csc1NC(=O)c1cc(C)on1,"25.1 µM [falling, partial curve]"
13,CCCCNc1nc2c(-c3cccc(Br)c3)nnn2c2ccccc12,"1.58 µM [falling, full curve]"
14,CCOc1c(C(N)=O)c(-c2ccccc2)c2c(=O)[nH]c3ccccc3n12,"0.126 µM [falling, full curve, poor fit]"
15,COc1ccc(OCCCn2c(C)nc3cc(C)c(C)cc32)cc1,"25.1 µM [falling, partial curve]"
16,CCC1=C(c2ccc(C)cc2)S(=O)(=O)N=C1N1CCC(C(=O)NCCc2cccc(OC)c2)CC1,"31.6 µM [falling, single point]"
17,CCOc1ccccc1OCCCCCc1c(C)n[nH]c1C,"15.8 µM [falling, partial curve]"
18,COC(=O)C1CCN(c2csc3ccc(C)cc3c2=O)CC1,"15.8 µM [falling, partial curve]"
19,CCN(CCCNC(=O)c1ccc(Sc2ccc(Cl)cc2)c(NC(C)=O)c1)c1cccc(C)c1,"25.1 µM [falling, partial curve]"
20,CCc1nn(CCCC(=O)NCc2ccc(OC)c(OC)c2)c(=O)c2cc3occc3n12,"0.158 µM [rising, partial curve]"
21,Cc1ccc(C)c(NC(=O)CN(Cc2ccccc2)S(=O)(=O)c2ccc3nc(C)sc3c2)c1,"25.1 µM [falling, single point]"

# For convenience, some entries already given.
row,SMILES,AC50
4,CCOc1ccc(C(=O)Nc2ccc(Cl)c(-c3nc4cc(C)cc(C)c4o3)c2)cc1,"15.8 µM [falling, partial curve]"
5,CCOC(=O)C1CCC(CN(Cc2ccc(OC)cc2)S(=O)(=O)c2ccc(F)c(C(=O)Nc3cc(Cl)ccc3OC)c2)CC1 (configuration not stated),"0.00631 µM [falling, full curve, poor fit]"
6,O=C(Cc1cccs1)N1CCN(c2nc(-c3ccc(Cl)cc3)cs2)CC1,"39.8 µM [falling, single point]"
7,COc1ccc(NC(=O)Cc2ccc(NC(=O)N3CCCCc4ccccc43)cc2)c(OC)c1,"31.6 µM [falling, single point]"
8,CC(C)c1ccc(NC(=O)c2cc(S(=O)(=O)NCCC3=CCCCC3)ccc2F)cc1,"15.8 µM [falling, partial curve]"
9,Cc1cn2c(=O)cc(COC(=O)c3ccc(NC(=O)c4ccc(C(C)(C)C)cc4)cc3)nc2s1,"0.0631 µM [rising, full curve, poor fit]"
10,CCOC(=O)c1ccc(NC(=O)C(CC)Sc2nncn3c2cc2oc(C)cc23)cc1 (configuration not stated),"12.6 µM [falling, partial curve]"
11,CC1(C)Cc2c(sc3nc(-c4cc5ccccc5o4)n(N)c(=O)c23)CO1,"20 µM [falling, partial curve]"
12,COC(=O)c1c(-c2cccnc2)csc1NC(=O)c1cc(C)on1,"25.1 µM [falling, partial curve]"
13,CCCCNc1nc2c(-c3cccc(Br)c3)nnn2c2ccccc12,"1.58 µM [falling, full curve]"
14,CCOc1c(C(N)=O)c(-c2ccccc2)c2c(=O)[nH]c3ccccc3n12,"0.126 µM [falling, full curve, poor fit]"
15,COc1ccc(OCCCn2c(C)nc3cc(C)c(C)cc32)cc1,"25.1 µM [falling, partial curve]"
16,CCC1=C(c2ccc(C)cc2)S(=O)(=O)N=C1N1CCC(C(=O)NCCc2cccc(OC)c2)CC1,"31.6 µM [falling, single point]"
17,CCOc1ccccc1OCCCCCc1c(C)n[nH]c1C,"15.8 µM [falling, partial curve]"
18,COC(=O)C1CCN(c2csc3ccc(C)cc3c2=O)CC1,"15.8 µM [falling, partial curve]"

# Continuation.

row,SMILES,AC50
1,CCN(CC)c1ccc(-c2nc(-c3ccccn3)no2)cc1[N+](=O)[O-],"1.58 µM [rising, full curve, poor fit]"
2,COc1cc(C2Oc3nc(SC)nnc3-c3ccccc3N2C(C)=O)cc(Cl)c1OC (configuration not stated),"20 µM [falling, partial curve]"
3,Cc1ccc(CNC(=O)CN2C(=O)COc3ccc(S(=O)(=O)N4CCC(C)CC4)cc32)cc1,"25.1 µM [falling, single point]"
4,CCSc1nnc(NC(=O)c2cccc(OCc3c(C)noc3C)c2)s1,"39.8 µM [falling, single point]"
5,CSc1cccc(NC(=O)c2ccc3c(c2)CCCN3S(C)(=O)=O)c1,"20 µM [falling, partial curve]"
6,CCCCCCn1c(/C=C/c2ccccc2)nc2ccccc21,"25.1 µM [falling, partial curve]"
7,Cc1ccc(N2CC(NC(=O)C3CCCC3)CC2=O)cc1 (configuration not stated),"7.94 µM [falling, single point]"
8,CCOC(=O)N1CCC(Nc2nc3ccccc3nc2NS(=O)(=O)c2ccc(Cl)cc2)CC1,"0.1 µM [falling, full curve]"
9,COc1cccc(N2CCN(C(=O)Cn3ncc4c3-c3ccccc3OC4)CC2)c1,"31.6 µM [falling, single point]"
10,O=C1C2C3C=CC(CO)(O3)C2C(=O)N1c1ccccc1-c1ccccc1 (configuration not stated),"3.16 µM [falling, full curve]"
11,Cc1ccc(C(=O)c2cn(CC(=O)Nc3ccc4c(c3)OCCO4)c3nc(C)ccc3c2=O)cc1,"15.8 µM [falling, partial curve, poor fit]"
12,CCOc1ccc(Nc2c(S(=O)(=O)c3ccccc3)cnc3ccc(CC)cc23)cc1,"20 µM [falling, partial curve]"
13,CSc1oc(-c2ccc(F)cc2)nc1S(=O)(=O)c1ccc(Br)cc1,"12.6 µM [falling, partial curve]"
14,O=C(CC1Nc2ccccc2NC1=O)c1ccccc1 (configuration not stated),"2.51 µM [falling, full curve]"
15,CC1=C(C(=O)Nc2cccnc2)C(c2ccc(F)cc2)n2nc(SCc3ccccc3)nc2N1 (configuration not stated),"0.126 µM [falling, partial curve]"
16,N#CCSc1nnc(Cc2cccc3ccccc23)n1C1CCCCC1,"15.8 µM [falling, partial curve]"
17,CCCCNC(=O)CSc1nc2ccccc2nc1Cc1ccccc1,"25.1 µM [falling, partial curve]"
18,O=C(CCc1ccc(S(=O)(=O)N2CCCCC2)cc1)c1nnc(-c2ccccc2)o1,"3.16 µM [falling, partial curve]"
19,N#Cc1c(SCC(N)=O)nc(-c2ccccc2)c2c1CCCC2,"10 µM [falling, partial curve]"
20,Cc1ccc(-n2c(=O)c3cccnc3n2CC(=O)Nc2ccccc2C(F)(F)F)cc1C,"6.31 µM [rising, partial curve]"
